Assay [1] deals with Secreted StrepTagII-modified encapsulin shell protein A with N-terminal human BM40 secretory signal peptide (Myxococcus xanthus) (UniProt Q1D6H4). The experiment in a line: native gel or EMSA; Coomassie-stained Blue Native PAGE of cell culture supernatant of HEK293T cells.
For assay [2], the target named is MxEncA^STII, StrepTagII-labeled encapsulin shell protein A, from the bicistronic construct ^MycC-IntP2A-A^STII (Myxococcus xanthus) (UniProt Q1D6H4). The experiment in a line: pull-down; lysate (Buffer W, freeze-thaw) of HEK293T expressing ^MycC-IntP2A-A^STII on Strep-Tactin XT, elution with biotin; silver-stained SDS-PAGE.
For assay [3], the target named is MxEncA^FLAG, encapsulin shell protein A from Myxococcus xanthus with C-terminal FLAG tag (Myxococcus xanthus) (UniProt Q1D6H4). The experiment in a line: co-IP; HEK293T lysates (M-PER) of co-expressing cells (transient or stable clone) on anti-FLAG M2 beads, four washes, elution with FLAG peptide; silver-stained SDS-PAGE, western blot against FLAG or Myc. Background: In western blotting, separated proteins are transferred to a membrane and probed.

Results are given in words; binding and its absence hold for the method and conditions named. For some assays here: Binding seen in cells or lysates may run through a third protein. Some entries that bind do so weakly or less than the wild type. For some assays here: Where a sequence is shown, tags or fusion partners need not be part of it.

On to “Secreted StrepTagII-modified encapsulin shell protein A with N-terminal human BM40 secretory signal peptide (from UniProt Q1D6H4 1-287)”, for which, in assay [1], the binding result is “binds”.

B1: Encapsulin cargo protein C, non-tagged, from the multi-gene construct BCDP2A (natural protein, Myxococcus xanthus, UniProt Q1D3Y8 1-130, looked up)
chain: MPQTNPFHSLVPRKMTDTELARSIRLNIEAELDAINLYAAHIDATDNEDAKAILQHVMDEEREHAALFWELIARLDPEQAAHAKEAVEKYRLITSGASHEAVEAVGKEGAAPSPADVTPEKRLTVGSLRR
notes: MxEncC, ferritin-like native cargo protein of Myxococcus xanthus encapsulin, expressed from a single reading frame with B and D separated by P2A peptides; P2A skipping probably leaves residues of the P2A peptide on the proteins; also called MxEncC; EncC
As to B1, the binding result in assay [2] and in assay [3] was “binds” throughout.

B2: Encapsulin cargo protein D, non-tagged, from the multi-gene construct BCDP2A (natural protein, Myxococcus xanthus, UniProt Q1D9P3 1-109, looked up)
chain: MAKNSNPSAFDRDFGYLMPFLDRVAAAASDLEDASARAELTRLMVEEKARWQRIQELLGGAGGRGAAAPTPAREAPAEAPRLARGSADELHEAAPFATGLTVGSLRGSR
notes: MxEncD, native cargo protein of Myxococcus xanthus encapsulin, expressed from a single reading frame with B and C separated by P2A peptides; P2A skipping probably leaves residues of the P2A peptide on the proteins; also called MxEncD; EncD
Take B2: the binding entry in assay [3] is reported as “binds”.

B3: Encapsulin cargo protein B, non-tagged, from the multi-gene construct BCDP2A (natural protein, Myxococcus xanthus, UniProt Q1D6H3 1-158, looked up)
chain: MAGPPDSDLDDVARIRLVLARELETINEYEAYARASSNPEVRAFFQHLAAEEKEHVSEAVHMLRMLDSGQNDHFAKPFVPGHFQAAEAPAPATVHVPTPDGPAFSVNGRNGRLPSEPPTSLPPQRLLYGLPAPPPAVESHPLTVGSLRRGGGGSGSGR
notes: MxEncB, ferritin-like native cargo protein of Myxococcus xanthus encapsulin, expressed from a single reading frame with C and D separated by P2A peptides; P2A skipping probably leaves residues of the P2A peptide on the proteins; also called MxEncB; EncB
B3: the binding entry in assay [3] is “binds”.

The record behind these values is PMC5959871, “Bacterial encapsulins as orthogonal compartments for mammalian cell engineering” (Nature Communications, 2018).
